Source: PubChem BioAssay AID2417 (National Center for Advancing Translational Sciences (NCATS), 2010)
The whole screen tested about 140,000 compounds, of which about 4,300 (3.1%) were called active. The shares of active, inactive and inconclusive entries below differ from those in the screen.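 Rule for the calls: active = readout at or below -70, meaning at least 70% loss of cells showing the perinucleolar compartment, a nuclear body marking cancer cells; inconclusive = readout between -30 and a set limit; inactive = the rest.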

Experiment: High Content Assay for Compounds that inhibit the Assembly of the Perinucleolar Compartment;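 note: plate controls were DMSO wells for no effect and camptothecin positive control wells for full effect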
Conditions: PC3M PTB-GFP, PNC prevalence imaging, 16 h; at 10 µM; active compounds read low
Outline: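 Read-out is percentage of cells bearing a perinucleolar compartment, from automated 20x imaging of fixed, Hoechst-stained PC3M PTB-GFP cells. Cells were seeded 4 h, then exposed 16 h to compound (23 nl of library stock) in duplicate plates.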

Structure (SMILES)	activity change (PNC), negative = inhibition
COC(=O)c1cc2sc(Cl)cc2n1CC(=O)NCC1CCCO1 (centres undefined)	inconclusive: -40.3%
Cc1ccc(S(=O)(=O)N(CC(=O)N2CCCC2)C2CCCCC2)cc1	inconclusive: -31.5%
C=CCN1C(=O)/C(=C\c2ccc(Cl)cc2)N=C1SCC(=O)NCCC	inconclusive: -42.8%
CSc1ccc(S(=O)(=O)Nc2c(C)cccc2C)cc1	inconclusive: -40.8%
Cc1ccc(NC(=O)C2Cc3ccccc3CN2C(=O)c2ccccc2)cc1Cl (centres undefined)	inactive: -26%
Cn1c(NNC(=O)c2ccc(C(C)(C)C)cc2)cc(=O)n(C)c1=O	inconclusive: -41.6%
O=C(NNC1=C(C(=O)C(F)(F)F)CCC1)c1ccccc1O	inconclusive: -71.6%
COc1ccccc1NS(=O)(=O)c1ccc(C(=O)OCC(=O)NCc2ccco2)cc1	inconclusive: -36.4%
O=C(N/N=C/c1ccc(F)c(F)c1)c1cc2c(s1)-c1ccccc1CC2	inconclusive: -41.7%
CC(C)c1nnc(SCC(=O)Nc2ccc3c(c2)OCO3)n1C	active: -100%
COc1ccc2cnnc(SCC(=O)Nc3ccc(C(=O)O)cc3)c2c1OC	inactive: -29.4%
O=C(NC1CCCCC1)C(c1cccs1)N(C(=O)Cc1c[nH]c2ccccc12)c1ccc(F)cc1 (centres undefined)	inconclusive: -34.9%
Cc1ccc2oc(-c3cccc(NC(=O)c4ccc(Br)o4)c3C)nc2c1	inconclusive: -44.9%
O=[N+]([O-])c1cc(C(F)(F)F)cc([N+](=O)[O-])c1N1CCN(S(=O)(=O)c2ccccc2)CC1	inconclusive: -34.1%
O=C1c2ccccc2C(=O)N1CCC(=O)N1CCCc2ccccc21	inconclusive: -36.5%
O=C(N/C(=C\c1cn(-c2ccccc2)nc1-c1ccc(Cl)cc1)C(=O)N1CCOCC1)c1ccccc1	inconclusive: -47.5%
Oc1ccccc1-c1cc(-c2cccc(F)c2)n[nH]1	inconclusive: -35.6%
O=C(Nn1cnnc1)C(Sc1ccccc1)c1ccccc1 (centres undefined)	inconclusive: -64.2%
CC(C)N=C(Nc1ccccc1)c1cccnc1	inactive: -28.3%
CC(C)NC(=O)c1nc2ccccc2s1	inconclusive: -39.1%
Oc1ccccc1C(=S)N1CCCCCC1	inconclusive: -45%
Cc1ccc(O)c(C(=O)c2cnc3onc(-c4ccc(F)cc4)c3c2)c1	inactive: -20.7%
CCOC(=O)CNC(=O)CSc1nnnn1-c1cc(C)ccc1C	inactive: -8.66%

Structure (SMILES)	activity change (PNC), negative = inhibition
CCCCCNC(=O)CC1Nc2c3ccccc3nc(=S)n2C1=O (centres undefined)	inactive: 46.7%
O=C1CCCC2=C1C(c1ccccn1)Nc1ccc(C(=O)c3ccccc3)cc1N2 (centres undefined)	inconclusive: -30.5%
C=CCn1c(=N)c(C(=O)NCCCOC)cc2c(=O)n3cccc(C)c3nc21	inconclusive: -39.4%
N#Cc1cccc(NC(=O)CSc2ccc3c4c(cccc24)C(=O)c2ccccc2-3)c1	inconclusive: -53.6%
Cc1ccc(-c2c3c(=O)n(C)c(=O)n(C)c3cn2-c2ccccc2O)cc1	inconclusive: -48.5%
CC1=CCC2([N+](=O)[O-])CN(CC(=O)O)CC1([N+](=O)[O-])C2 (centres undefined)	inactive: 27.3%
CCOC(=O)C(CC)n1nc(C)n2c(cc3occc32)c1=O (centres undefined)	inconclusive: -32.8%
COc1cc(/C=N/Nc2snc(SC)c2C#N)cc(OC)c1OC	active: -105%
O=C(C1CCCN(S(=O)(=O)Cc2ccccc2)C1)N1CCc2ccccc21 (centres undefined)	inconclusive: -34%
CCOC(=O)c1c(-c2ccccc2)csc1NC(=O)/C(C#N)=C/c1ccc(O)c(OC)c1	inactive: 10.2%
O=C(CS(=O)(=O)c1ccccc1)Nc1ccc(Br)cn1	inconclusive: -44.7%
COc1cc(S(=O)(=O)N2CCN(c3ccc(F)cc3)CC2)ccc1Cl	inconclusive: -35.7%
COc1ccc(N(C)C(=O)c2cc3c(Cl)nc4ccccc4c3s2)cc1	inconclusive: -36.2%
CCn1c(SCC(=O)Nc2ccc(OC)cc2)nnc1-c1ccco1	inactive: -10.4%
Cc1n[nH]c(C)c1C(=O)CC1(O)C(=O)N(Cc2ccccc2)c2ccc(Br)cc21 (centres undefined)	inconclusive: -43.5%
COc1ccc(C)cc1N(C(=O)c1ccccc1F)c1nc2ccccc2s1	inconclusive: -46.3%
O=C(NCc1ccco1)c1cc(S(=O)(=O)N2CCOCC2)ccc1Cl	inconclusive: -44.6%
CCCCOc1ccc(N2C(=O)CC(NCCc3ccc(S(N)(=O)=O)cc3)C2=O)cc1 (centres undefined)	active: -82.3%
CCN(CC)S(=O)(=O)c1ccc(C(=O)Nc2ccc3c(c2)OCCO3)cc1	inactive: 32.7%
CCc1nnc(NC(=O)c2cc(S(=O)(=O)N3CCN(c4ccccc4)CC3)ccc2Cl)s1	inconclusive: -43.8%
COc1ccc2nc(SCC(N)=O)cc(C)c2c1	inactive: 3.27%
C=CCn1c(SCC(=O)c2cccs2)nc2sc(C)c(C)c2c1=O	inconclusive: -44.3%
C=CCN1C(=O)/C(=C/c2ccc(N(C)C)cc2)S/C1=N\c1nnc(CC)s1	inactive: -5.74%

Part of the list above, reformatted.
CCCCCNC(=O)CC1Nc2c3ccccc3nc(=S)n2C1=O (centres undefined)
  activity change (PNC), negative = inhibition: inactive: 46.7%
O=C1CCCC2=C1C(c1ccccn1)Nc1ccc(C(=O)c3ccccc3)cc1N2 (centres undefined)
  activity change (PNC), negative = inhibition: inconclusive: -30.5%
C=CCn1c(=N)c(C(=O)NCCCOC)cc2c(=O)n3cccc(C)c3nc21
  activity change (PNC), negative = inhibition: inconclusive: -39.4%
N#Cc1cccc(NC(=O)CSc2ccc3c4c(cccc24)C(=O)c2ccccc2-3)c1
  activity change (PNC), negative = inhibition: inconclusive: -53.6%

Additional compounds follow.

Structure (SMILES)	activity change (PNC), negative = inhibition
C(=N\n1cnnc1SCc1ccccc1)/c1ccco1	inconclusive: -59%
O=C(O)Cc1ccc(NC(=S)Nc2cccc(Cl)c2Cl)cc1	inconclusive: -40.6%
O=C(CSc1nc2cc(Cl)ccc2s1)NC(=O)NCc1ccco1	inconclusive: -32.9%
C=CC(=O)NCCCc1cc(C(C)(C)C)c(O)c(C(C)(C)C)c1	inconclusive: -36.7%
Cc1nc2ccc(NC(=O)c3cccc(S(=O)(=O)N(C)c4ccccc4)c3)cc2s1	inconclusive: -43.3%
Cc1nc2ccccc2n1/C(=N/S(=O)(=O)c1ccc(Br)cc1)c1ccccc1	active: -100%
Cc1ccc(N(CC(O)CN2CCOCC2)S(=O)(=O)c2ccc3ccccc3c2)cc1 (centres undefined)	inactive: 2.29%
Cc1ccc(-c2cccc(C(=O)NCc3ccccc3)n2)c2ccccc12	inconclusive: -58%
O=C(O)c1ccc(Br)c(S(=O)(=O)N2CCCC2)c1	inconclusive: -43.8%
O=C(C1=NN[C@@H]2C(=O)N(c3ccccc3C(F)(F)F)C(=O)[C@H]12)c1ccc2ccccc2n1	inactive: -23.7%
CC(=O)N(C)c1ccc(OCC(O)Cn2c3ccc(Cl)cc3c3cc(Cl)ccc32)cc1 (centres undefined)	inconclusive: -67.4%
COCCOC(=O)C1=C(N)Oc2c(oc(CO)cc2=O)C1c1ccccc1F (centres undefined)	inconclusive: -37.5%
CCOc1ccc(CC(=O)C2C(=O)CC(C)(C)CC2=O)cc1OCC	inactive: 5.46%
COc1ccc(N2C(=O)CC(N3CCCC4CCCCC43)C2=O)cc1 (centres undefined)	inactive: -23.9%
COC(=O)CSc1nnc(C)c(=O)[nH]1	inconclusive: -65.3%
CCOC(=O)c1ccc(NC(=O)CSc2nnc(CNc3ccc(C)cc3)n2C)cc1	active: -100%
COc1ccc(-n2nnc3c(SCC(=O)NCc4ccco4)ncnc32)cc1	inactive: 1.85%
Cc1cc(C)cc(-n2c(O)c(C=NC3CCS(=O)(=O)C3)c3ccccc3c2=O)c1 (centres undefined)	inactive: -9.47%
CCCn1c(SC(C(=O)Nc2cccc(OC)c2)c2ccccc2)nc2ccccc2c1=O (centres undefined)	inactive: -25.6%
CC(C)(C)n1nnnc1C(c1ccc(C(F)(F)F)cc1)N(Cc1ccc(F)cc1)Cc1ccco1 (centres undefined)	active: -119%
c1ccc(NC2=Nc3ccccc3CC2)cc1	inactive: 14.3%
CCOC(=O)c1oc2nc(C)c3c(c2c1N)CC(C)(C)OC3	inconclusive: -38.5%
O=C(NCC1CCCO1)NC1CCCCC1 (centres undefined)	inconclusive: -45.9%

Structure (SMILES)	activity change (PNC), negative = inhibition
C=CCn1c(SCC(=O)NCCCC)nc2scc(-c3ccco3)c2c1=O	inactive: 31.4%
CCc1ccc(C2NC(=S)NC3=C2C(=O)CCC3)cc1 (centres undefined)	inactive: 9.57%
O=S(=O)(c1ccc(F)cc1)N1CCC(O)(c2ccc3c(c2)OCO3)CC1	inconclusive: -36.9%
COc1ccc(Nc2ccc3nnc(-c4ccc(Br)cc4)n3n2)cc1	inactive: -8.21%
CCOC(=O)CSc1nc(Nc2ccc3c(c2)OCO3)c2ccccc2n1	inconclusive: -39.7%
N#Cc1ccccc1/C=N/Nc1nc(-c2ccccc2)c2cc(Br)ccc2n1	inconclusive: -35.3%
COC(=O)c1ccccc1NC(=O)Cc1nc(-c2ccccc2)sc1-c1ccc(C)cc1	inactive: -14.1%
COc1ccc(/C=N/NC(=O)c2ccc(CSc3nc(C)cc(C)n3)cc2)cc1O	inconclusive: -31.4%
O=C(NCc1ccco1)c1cccc(-c2nnc(-c3ccccc3)o2)c1	inactive: 5.29%
CCOC(=O)Nc1nc(C)c(C(=O)N(C)C)s1	inconclusive: -54.8%
O=C(c1ccc(Cn2cc(Cl)cn2)cc1)N1CCN(c2ccccc2)CC1	inconclusive: -64.2%
Cc1c(Cl)c([N+](=O)[O-])nn1CCCC(=O)Nc1ccc(Cl)cc1Cl	inconclusive: -30.4%
O=C(O)CCCCCN1C(=O)/C(=C\c2ccncc2)SC1=S	active: -89.6%
CCOc1ncccc1C(=O)Oc1ccc2c(c1)OCO2	inactive: 4.42%
CC(=O)C1=C(c2ccccc2)OC(N)=C(C#N)C1c1ccccc1C (centres undefined)	inconclusive: -64.6%
NC(=O)c1ccc(C(F)(F)F)n(Cc2ccc(Cl)cc2)c1=O	inconclusive: -44.1%
COCCCNS(=O)(=O)c1ccc(OC)c(Cl)c1Cl	inactive: 21.4%
C=CCNC(=O)C(=O)NN=C1CCN(C)CC1	inconclusive: -36.4%
Cc1cc(C)cc(NC(=O)NCc2nnc(SCc3ccccc3)n2C)c1	inconclusive: -34.8%
CCn1cc(Br)c(C(=O)Nc2ccc(Cl)cc2Cl)n1	active: -113%
